# From the supplement of paper PMC12819154, “High-throughput peptide-centric local stability assay extends protein–ligand identification to membrane proteins, tissues and bacteria” (Nature Structural & Molecular Biology, 2025)
# Amino acid sequences for entries named in this document (tags omitted). A change or cut given only in a name is not applied to a line headed by its entry.
# UniProt Q91ZU1: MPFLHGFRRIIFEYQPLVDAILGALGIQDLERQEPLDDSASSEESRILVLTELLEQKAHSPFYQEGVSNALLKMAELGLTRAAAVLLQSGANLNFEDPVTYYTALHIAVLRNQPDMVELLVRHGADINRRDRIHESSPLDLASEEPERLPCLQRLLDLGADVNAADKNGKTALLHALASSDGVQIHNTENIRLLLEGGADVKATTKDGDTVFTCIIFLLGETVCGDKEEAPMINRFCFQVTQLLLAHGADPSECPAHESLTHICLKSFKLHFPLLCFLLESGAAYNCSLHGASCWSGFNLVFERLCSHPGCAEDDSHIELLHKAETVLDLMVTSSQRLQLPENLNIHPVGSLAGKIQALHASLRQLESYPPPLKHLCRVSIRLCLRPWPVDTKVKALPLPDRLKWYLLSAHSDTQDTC
# UniProt Q91V88: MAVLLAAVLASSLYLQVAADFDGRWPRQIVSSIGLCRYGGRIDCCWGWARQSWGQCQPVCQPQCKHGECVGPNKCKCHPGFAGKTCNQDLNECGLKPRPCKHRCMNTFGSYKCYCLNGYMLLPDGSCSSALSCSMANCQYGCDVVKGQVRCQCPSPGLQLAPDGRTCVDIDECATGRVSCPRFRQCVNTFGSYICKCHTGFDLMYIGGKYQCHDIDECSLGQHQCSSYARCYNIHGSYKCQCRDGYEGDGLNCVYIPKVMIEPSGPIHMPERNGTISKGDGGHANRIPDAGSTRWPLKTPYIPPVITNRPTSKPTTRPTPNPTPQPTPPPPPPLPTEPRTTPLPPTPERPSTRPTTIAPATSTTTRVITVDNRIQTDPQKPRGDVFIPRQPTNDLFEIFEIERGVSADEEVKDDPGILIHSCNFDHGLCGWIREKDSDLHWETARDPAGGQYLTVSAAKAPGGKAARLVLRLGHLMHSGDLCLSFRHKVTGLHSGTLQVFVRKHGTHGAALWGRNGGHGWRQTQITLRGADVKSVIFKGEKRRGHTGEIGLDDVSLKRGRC
# UniProt Q91YN0: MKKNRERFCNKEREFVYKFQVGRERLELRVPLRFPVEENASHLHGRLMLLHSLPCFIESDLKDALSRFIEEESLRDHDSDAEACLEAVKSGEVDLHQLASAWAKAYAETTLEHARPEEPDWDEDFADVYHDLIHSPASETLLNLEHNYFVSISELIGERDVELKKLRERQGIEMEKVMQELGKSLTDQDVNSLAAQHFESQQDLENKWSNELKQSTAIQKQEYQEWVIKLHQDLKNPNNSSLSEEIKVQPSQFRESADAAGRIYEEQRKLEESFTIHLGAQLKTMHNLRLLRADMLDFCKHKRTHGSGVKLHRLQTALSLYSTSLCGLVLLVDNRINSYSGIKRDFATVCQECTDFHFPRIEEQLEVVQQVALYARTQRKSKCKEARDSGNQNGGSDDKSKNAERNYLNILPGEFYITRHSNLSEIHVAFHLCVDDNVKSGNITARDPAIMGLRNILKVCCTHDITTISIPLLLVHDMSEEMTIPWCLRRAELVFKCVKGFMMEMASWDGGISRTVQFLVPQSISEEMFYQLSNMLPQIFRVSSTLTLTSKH
# UniProt Q91VJ2: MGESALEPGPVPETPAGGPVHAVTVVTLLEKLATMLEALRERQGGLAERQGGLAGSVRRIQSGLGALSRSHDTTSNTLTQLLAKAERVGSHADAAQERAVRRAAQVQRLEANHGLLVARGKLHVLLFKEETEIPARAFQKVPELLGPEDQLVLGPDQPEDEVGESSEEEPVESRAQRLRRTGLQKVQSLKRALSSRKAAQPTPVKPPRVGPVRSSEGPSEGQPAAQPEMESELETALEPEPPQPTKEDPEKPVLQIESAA
# UniProt Q91VR2: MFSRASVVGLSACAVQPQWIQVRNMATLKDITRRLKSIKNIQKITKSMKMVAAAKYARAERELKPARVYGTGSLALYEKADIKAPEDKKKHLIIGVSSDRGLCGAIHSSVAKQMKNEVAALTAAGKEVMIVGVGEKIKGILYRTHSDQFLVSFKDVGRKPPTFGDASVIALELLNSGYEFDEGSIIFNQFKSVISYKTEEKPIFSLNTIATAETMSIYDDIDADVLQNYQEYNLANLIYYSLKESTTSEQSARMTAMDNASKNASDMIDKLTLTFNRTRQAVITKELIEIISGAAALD
# UniProt Q91YY4: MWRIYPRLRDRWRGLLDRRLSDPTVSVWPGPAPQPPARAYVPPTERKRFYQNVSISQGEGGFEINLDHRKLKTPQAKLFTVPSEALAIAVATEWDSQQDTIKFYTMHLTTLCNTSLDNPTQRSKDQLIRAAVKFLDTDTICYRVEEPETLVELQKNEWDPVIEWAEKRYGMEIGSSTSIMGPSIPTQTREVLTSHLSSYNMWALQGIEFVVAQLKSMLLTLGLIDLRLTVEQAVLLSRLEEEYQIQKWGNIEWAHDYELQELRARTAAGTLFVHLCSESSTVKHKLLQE
# UniProt Q91XD7: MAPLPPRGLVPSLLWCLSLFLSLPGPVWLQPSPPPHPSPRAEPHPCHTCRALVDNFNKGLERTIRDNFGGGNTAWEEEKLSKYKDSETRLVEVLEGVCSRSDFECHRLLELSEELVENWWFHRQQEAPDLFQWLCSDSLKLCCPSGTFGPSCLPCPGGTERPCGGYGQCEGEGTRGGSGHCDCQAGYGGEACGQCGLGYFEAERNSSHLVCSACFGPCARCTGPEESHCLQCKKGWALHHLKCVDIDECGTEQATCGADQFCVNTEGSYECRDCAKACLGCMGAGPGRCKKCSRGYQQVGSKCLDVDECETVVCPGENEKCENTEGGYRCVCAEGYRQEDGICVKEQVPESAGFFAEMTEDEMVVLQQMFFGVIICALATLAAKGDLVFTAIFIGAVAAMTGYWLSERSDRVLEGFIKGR
# UniProt Q8VHL0: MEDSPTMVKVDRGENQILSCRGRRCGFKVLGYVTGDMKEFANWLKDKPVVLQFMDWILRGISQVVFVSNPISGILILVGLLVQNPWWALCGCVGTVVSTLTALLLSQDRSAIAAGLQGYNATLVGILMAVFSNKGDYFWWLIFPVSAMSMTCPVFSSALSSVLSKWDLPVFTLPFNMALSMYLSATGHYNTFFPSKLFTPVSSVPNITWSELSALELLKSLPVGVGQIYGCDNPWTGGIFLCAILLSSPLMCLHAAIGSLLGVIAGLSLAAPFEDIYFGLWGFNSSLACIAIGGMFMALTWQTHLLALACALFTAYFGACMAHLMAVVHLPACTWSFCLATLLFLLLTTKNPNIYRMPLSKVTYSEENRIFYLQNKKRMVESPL
# UniProt Q91W39: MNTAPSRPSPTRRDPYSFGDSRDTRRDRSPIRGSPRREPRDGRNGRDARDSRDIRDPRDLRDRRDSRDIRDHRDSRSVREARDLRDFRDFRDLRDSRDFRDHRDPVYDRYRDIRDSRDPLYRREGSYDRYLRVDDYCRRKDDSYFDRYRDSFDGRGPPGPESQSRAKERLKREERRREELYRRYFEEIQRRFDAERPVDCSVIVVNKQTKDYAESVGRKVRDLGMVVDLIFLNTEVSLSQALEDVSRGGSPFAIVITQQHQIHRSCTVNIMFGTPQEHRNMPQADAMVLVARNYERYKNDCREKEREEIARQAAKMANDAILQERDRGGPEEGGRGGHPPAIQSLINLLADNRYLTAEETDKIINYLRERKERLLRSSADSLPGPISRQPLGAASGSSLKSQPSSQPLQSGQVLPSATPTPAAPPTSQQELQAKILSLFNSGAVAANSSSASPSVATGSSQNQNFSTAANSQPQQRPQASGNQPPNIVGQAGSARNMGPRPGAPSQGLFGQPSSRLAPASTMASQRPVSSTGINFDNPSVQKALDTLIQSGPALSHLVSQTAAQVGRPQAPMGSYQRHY
# UniProt Q91YM4: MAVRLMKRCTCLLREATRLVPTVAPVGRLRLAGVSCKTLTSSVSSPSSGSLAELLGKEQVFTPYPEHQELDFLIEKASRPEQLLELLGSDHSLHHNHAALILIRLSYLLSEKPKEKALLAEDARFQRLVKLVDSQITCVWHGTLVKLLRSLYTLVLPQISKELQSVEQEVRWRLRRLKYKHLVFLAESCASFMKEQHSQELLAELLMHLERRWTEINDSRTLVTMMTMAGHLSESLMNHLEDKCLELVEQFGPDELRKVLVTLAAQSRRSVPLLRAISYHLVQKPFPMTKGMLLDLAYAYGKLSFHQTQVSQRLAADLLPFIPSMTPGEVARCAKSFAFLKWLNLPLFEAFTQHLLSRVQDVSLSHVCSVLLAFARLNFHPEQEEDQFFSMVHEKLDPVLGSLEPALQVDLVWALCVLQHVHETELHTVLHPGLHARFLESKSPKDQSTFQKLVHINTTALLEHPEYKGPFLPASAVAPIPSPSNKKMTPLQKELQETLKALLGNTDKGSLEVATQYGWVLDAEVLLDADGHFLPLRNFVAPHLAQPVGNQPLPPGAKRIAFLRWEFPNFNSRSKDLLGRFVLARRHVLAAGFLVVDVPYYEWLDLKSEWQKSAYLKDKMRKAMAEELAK
# UniProt Q91YR1, whole entry: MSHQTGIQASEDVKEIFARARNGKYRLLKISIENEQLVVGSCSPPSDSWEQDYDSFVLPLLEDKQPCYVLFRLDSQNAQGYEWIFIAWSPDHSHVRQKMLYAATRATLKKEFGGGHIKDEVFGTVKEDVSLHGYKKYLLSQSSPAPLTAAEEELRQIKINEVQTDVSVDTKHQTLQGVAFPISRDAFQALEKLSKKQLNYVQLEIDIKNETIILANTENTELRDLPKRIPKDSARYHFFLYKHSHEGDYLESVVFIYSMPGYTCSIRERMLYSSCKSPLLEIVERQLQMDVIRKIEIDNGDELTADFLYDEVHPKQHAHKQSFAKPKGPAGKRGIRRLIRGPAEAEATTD
# UniProt Q91W96, whole entry: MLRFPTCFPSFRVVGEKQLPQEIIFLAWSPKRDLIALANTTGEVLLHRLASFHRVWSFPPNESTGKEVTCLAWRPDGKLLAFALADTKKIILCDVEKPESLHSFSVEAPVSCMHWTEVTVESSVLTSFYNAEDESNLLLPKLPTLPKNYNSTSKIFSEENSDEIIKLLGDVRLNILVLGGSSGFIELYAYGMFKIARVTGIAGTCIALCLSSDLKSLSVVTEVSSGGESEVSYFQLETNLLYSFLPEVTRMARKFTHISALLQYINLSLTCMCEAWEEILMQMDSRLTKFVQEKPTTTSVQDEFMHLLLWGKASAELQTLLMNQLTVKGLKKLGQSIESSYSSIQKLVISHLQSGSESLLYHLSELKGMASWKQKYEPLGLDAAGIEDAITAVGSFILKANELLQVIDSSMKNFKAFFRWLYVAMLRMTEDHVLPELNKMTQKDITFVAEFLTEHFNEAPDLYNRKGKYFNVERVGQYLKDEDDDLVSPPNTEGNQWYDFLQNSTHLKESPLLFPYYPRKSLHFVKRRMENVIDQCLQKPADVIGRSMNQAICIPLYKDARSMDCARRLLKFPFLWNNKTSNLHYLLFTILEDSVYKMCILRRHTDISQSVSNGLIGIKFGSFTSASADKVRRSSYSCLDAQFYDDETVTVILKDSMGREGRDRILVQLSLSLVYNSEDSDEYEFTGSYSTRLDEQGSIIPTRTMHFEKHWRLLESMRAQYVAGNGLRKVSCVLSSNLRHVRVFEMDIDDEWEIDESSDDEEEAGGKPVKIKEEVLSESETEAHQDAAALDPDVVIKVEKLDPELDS
# UniProt Q91Z31: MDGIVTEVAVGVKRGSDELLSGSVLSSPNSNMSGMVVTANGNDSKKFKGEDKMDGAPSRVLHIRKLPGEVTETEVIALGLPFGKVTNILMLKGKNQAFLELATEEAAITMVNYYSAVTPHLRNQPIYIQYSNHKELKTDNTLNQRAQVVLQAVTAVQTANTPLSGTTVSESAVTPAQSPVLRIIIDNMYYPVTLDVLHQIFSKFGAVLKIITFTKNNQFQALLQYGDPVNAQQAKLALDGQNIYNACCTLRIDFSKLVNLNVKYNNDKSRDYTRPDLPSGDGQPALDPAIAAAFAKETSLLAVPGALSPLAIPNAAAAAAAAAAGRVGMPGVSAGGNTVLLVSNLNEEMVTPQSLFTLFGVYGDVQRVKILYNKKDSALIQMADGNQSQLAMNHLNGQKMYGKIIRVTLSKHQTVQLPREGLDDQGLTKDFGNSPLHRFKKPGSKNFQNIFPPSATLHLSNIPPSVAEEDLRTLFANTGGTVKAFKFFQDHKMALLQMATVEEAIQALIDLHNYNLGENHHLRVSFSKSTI
# UniProt Q91XC9: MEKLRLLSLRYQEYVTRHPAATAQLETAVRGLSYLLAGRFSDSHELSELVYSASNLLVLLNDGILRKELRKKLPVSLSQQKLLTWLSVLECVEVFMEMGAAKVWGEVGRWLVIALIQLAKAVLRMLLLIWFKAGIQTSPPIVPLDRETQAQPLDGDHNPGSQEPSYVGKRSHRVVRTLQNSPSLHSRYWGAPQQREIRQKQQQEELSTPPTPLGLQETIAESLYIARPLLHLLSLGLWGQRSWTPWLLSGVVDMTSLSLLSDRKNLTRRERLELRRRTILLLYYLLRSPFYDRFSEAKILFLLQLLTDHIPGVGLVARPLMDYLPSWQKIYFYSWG
# UniProt Q91VC7: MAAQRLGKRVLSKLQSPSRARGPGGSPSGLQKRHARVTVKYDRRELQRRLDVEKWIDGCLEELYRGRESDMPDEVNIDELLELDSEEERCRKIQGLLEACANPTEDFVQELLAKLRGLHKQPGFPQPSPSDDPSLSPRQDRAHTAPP
# The list shows a part of the results. Most values lie at the level of the controls, where differences are scatter.
# Compound: CN[C@@H]1C[C@H]2O[C@@](C)([C@@H]1OC)n1c3ccccc3c3c4c(c5c6ccccc6n2c5c31)C(=O)NC4 [staurosporine]
# Assay: log2 fold change of tryptic peptide abundance, ligand vs vehicle (limited proteolysis) (log2 ratio); higher = more trypsin-susceptible (destabilized)
# Details: ligand concentration: 20 uM; sample: mouse liver crude lysate; replicate design: treated separately
row,Target,log2 fold change
1,"UniProt Q91ZU1 (peptide sequence: LCLRPWPVDTK, peptide start residue: 383)",0.362
2,"UniProt Q8VI78 (peptide sequence: CTDFQSANLLR, peptide start residue: 35)",0.123
3,"UniProt Q91WI7 (peptide sequence: NVSTHLIGNIR, peptide start residue: 252)",0.48
4,"UniProt Q91V88 (peptide sequence: GHTGEIGLDDVSLKR, peptide start residue: 544)",0.858
5,"UniProt Q91ZP3 (peptide sequence: KAQLDNLKR, peptide start residue: 161)",0.726
6,"UniProt Q91WU5 (peptide sequence: QQVLQEVYR, peptide start residue: 166)",0.266
7,"UniProt Q91YJ2 (peptide sequence: ETVNETGFQLK, peptide start residue: 189)",0.149
8,"UniProt Q91YN0 (peptide sequence: VQPSQFR, peptide start residue: 248)",0.178
9,"UniProt Q8VIJ6 (peptide sequence: ALAEIAKAELDDTPMRGR, peptide start residue: 335)",0.745
10,"UniProt Q91WN1 (peptide sequence: TYKGSEEELNDIK, peptide start residue: 119)",-0.581
11,"UniProt Q91VJ2 (peptide sequence: KAAQPTPVKPPR, peptide start residue: 197)",-0.531
12,"UniProt Q91VR2 (peptide sequence: HLIIGVSSDR, peptide start residue: 91)",0.156
13,"UniProt Q91YY4 (peptide sequence: TAAGTLFVHLCSESSTVK, peptide start residue: 266)",-0.214
14,"UniProt Q91YM2 (peptide sequence: KKEEDQASQGYK, peptide start residue: 1188)",-1.13
15,"UniProt Q91W36 (peptide sequence: FHWTAYLR, peptide start residue: 414)",0.229
16,"UniProt Q91XD7 (peptide sequence: DNFGGGNTAWEEEKLSK, peptide start residue: 66)",-0.157
17,"UniProt Q8VI94 (peptide sequence: LSFQEPGGER, peptide start residue: 391)",-0.122
18,"UniProt Q91VN0 (peptide sequence: LRCDGEADCQDR, peptide start residue: 1314)",0.171

row,Target,log2 fold change
1,"UniProt Q8VHL0 (peptide sequence: VDRGENQILSCR, peptide start residue: 10)",-0.226
2,"UniProt Q91W39 (peptide sequence: DSRDPLYRR, peptide start residue: 115)",-0.611
3,"UniProt Q91YM4 (peptide sequence: WEFPNFNSR, peptide start residue: 565)",-0.161
4,"UniProt Q91YR1 (peptide sequence: DAFQALEK, peptide start residue: 185)",-0.311
5,"UniProt Q8VHE0 (peptide sequence: AYAALTDEESRK, peptide start residue: 148)",-0.786
6,"UniProt Q91VS8 (peptide sequence: KLEAVYKEFELQK, peptide start residue: 659)",-0.402
7,"UniProt Q91W96 (peptide sequence: GKYFNVER, peptide start residue: 467)",-0.333
8,"UniProt Q91ZS8 (peptide sequence: NPVMILNELRPGLK, peptide start residue: 235)",0.215
9,"UniProt Q91WT9 (peptide sequence: AVVDKWFK, peptide start residue: 315)",-0.451
10,"UniProt Q91WN4 (peptide sequence: KSAIPYGNK, peptide start residue: 94)",-0.562
11,"UniProt Q91Z38 (peptide sequence: LKEEMLGK, peptide start residue: 243)",0.191
12,"UniProt Q91Z31 (peptide sequence: DFGNSPLHR, peptide start residue: 430)",0.119
13,"UniProt Q91YN9 (peptide sequence: SLQNTDGKFN, peptide start residue: 201)",-0.209
14,"UniProt Q91VA0 (peptide sequence: MKDPMAIFFTSGTTGYPK, peptide start residue: 213)",-0.775
15,"UniProt Q91YN1 (peptide sequence: DRDLLVVAHDLIR, peptide start residue: 84)",0.23
16,"UniProt Q91XC9 (peptide sequence: YWGAPQQR, peptide start residue: 188)",-0.0491
17,"UniProt Q91VC7 (peptide sequence: ARGPGGSPSGLQKR, peptide start residue: 20)",-1.14
18,"UniProt Q91VR8 (peptide sequence: KISDFLNSFDMSCR, peptide start residue: 31)",-0.187

# Six entries from above, bar-delimited.
row | Target | log2 fold change
3 | UniProt Q91YM4 (peptide sequence: WEFPNFNSR, peptide start residue: 565) | -0.161
4 | UniProt Q91YR1 (peptide sequence: DAFQALEK, peptide start residue: 185) | -0.311
10 | UniProt Q91WN4 (peptide sequence: KSAIPYGNK, peptide start residue: 94) | -0.562
13 | UniProt Q91YN9 (peptide sequence: SLQNTDGKFN, peptide start residue: 201) | -0.209
14 | UniProt Q91VA0 (peptide sequence: MKDPMAIFFTSGTTGYPK, peptide start residue: 213) | -0.775
16 | UniProt Q91XC9 (peptide sequence: YWGAPQQR, peptide start residue: 188) | -0.0491
